The record followed here is the supplement of paper PMC6411743.

Amino acid sequences for entries named in this document (tags omitted). A change or cut given only in a name is not applied to a line headed by its entry.
UniProt P52888, whole entry: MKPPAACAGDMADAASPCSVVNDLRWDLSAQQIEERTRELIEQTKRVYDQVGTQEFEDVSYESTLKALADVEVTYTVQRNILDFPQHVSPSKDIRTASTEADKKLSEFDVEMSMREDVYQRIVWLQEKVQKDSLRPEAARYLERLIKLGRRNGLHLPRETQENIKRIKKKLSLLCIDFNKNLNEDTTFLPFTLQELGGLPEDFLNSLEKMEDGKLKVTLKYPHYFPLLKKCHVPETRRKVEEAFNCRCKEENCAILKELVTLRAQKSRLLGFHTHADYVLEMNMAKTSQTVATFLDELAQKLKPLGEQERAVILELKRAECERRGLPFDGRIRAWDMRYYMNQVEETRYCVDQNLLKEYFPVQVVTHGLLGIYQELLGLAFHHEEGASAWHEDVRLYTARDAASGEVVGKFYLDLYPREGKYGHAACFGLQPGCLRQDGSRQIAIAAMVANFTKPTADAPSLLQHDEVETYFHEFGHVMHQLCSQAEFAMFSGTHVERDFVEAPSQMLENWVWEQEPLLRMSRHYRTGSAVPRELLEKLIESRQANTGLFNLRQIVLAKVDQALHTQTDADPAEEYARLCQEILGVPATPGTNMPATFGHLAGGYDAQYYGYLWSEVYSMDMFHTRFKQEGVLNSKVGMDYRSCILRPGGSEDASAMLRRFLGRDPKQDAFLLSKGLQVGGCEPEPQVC
UniProt P54725: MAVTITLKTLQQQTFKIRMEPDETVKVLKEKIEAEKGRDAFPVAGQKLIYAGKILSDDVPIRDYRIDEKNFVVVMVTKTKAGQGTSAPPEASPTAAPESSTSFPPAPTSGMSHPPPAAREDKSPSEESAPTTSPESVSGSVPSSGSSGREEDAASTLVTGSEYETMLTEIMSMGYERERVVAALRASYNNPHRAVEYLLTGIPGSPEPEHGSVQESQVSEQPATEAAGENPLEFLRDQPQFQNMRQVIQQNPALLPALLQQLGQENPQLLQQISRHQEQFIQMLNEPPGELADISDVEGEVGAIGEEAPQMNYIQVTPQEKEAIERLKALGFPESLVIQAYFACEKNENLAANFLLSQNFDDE
UniProt P55265: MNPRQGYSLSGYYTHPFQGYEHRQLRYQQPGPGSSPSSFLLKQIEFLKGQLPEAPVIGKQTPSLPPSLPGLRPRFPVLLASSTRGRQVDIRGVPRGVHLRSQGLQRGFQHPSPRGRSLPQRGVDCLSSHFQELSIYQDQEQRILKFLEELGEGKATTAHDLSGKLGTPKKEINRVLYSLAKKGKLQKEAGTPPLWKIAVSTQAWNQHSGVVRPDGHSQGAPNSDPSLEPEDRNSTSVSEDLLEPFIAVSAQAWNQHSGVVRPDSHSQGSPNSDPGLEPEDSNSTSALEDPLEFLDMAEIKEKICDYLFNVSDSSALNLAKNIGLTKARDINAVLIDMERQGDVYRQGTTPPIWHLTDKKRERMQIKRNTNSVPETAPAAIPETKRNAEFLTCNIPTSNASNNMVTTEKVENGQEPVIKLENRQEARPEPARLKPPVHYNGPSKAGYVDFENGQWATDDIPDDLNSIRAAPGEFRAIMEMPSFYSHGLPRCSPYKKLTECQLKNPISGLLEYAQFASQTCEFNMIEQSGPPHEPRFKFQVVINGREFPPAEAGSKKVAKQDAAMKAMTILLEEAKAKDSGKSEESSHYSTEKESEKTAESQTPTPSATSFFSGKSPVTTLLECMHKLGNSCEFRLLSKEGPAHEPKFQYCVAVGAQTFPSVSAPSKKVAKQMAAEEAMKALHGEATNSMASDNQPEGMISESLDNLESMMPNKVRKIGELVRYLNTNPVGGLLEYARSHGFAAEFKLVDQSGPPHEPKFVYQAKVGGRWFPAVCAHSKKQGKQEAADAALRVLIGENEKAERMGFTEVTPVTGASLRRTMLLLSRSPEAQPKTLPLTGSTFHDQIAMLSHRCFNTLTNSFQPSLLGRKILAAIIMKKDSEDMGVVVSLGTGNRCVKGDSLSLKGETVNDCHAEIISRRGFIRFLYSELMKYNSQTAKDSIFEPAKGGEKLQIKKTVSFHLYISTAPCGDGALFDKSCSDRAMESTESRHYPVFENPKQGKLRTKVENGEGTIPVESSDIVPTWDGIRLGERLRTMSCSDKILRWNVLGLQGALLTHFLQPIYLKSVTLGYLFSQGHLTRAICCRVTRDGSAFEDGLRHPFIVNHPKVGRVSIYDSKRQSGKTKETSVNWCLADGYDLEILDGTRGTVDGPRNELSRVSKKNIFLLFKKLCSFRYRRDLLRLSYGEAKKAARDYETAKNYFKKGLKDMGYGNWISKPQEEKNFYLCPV
UniProt P54619: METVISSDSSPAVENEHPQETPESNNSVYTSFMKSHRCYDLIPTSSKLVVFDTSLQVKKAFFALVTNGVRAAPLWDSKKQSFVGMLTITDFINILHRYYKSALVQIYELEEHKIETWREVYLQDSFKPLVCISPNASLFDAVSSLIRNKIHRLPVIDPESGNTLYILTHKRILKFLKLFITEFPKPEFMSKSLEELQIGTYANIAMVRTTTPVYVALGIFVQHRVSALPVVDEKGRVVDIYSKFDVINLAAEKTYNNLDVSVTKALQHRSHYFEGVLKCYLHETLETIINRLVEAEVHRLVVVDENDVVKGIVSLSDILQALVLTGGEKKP
UniProt P53611: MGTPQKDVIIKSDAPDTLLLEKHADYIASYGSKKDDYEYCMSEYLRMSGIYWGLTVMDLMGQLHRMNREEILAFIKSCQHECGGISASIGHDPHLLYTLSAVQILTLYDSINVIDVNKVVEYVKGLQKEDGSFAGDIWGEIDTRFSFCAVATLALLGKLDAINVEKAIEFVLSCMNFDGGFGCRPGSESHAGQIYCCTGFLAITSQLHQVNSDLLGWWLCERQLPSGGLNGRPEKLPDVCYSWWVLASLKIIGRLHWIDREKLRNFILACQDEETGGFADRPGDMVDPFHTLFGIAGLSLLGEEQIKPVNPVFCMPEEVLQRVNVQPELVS
UniProt P41743, whole entry: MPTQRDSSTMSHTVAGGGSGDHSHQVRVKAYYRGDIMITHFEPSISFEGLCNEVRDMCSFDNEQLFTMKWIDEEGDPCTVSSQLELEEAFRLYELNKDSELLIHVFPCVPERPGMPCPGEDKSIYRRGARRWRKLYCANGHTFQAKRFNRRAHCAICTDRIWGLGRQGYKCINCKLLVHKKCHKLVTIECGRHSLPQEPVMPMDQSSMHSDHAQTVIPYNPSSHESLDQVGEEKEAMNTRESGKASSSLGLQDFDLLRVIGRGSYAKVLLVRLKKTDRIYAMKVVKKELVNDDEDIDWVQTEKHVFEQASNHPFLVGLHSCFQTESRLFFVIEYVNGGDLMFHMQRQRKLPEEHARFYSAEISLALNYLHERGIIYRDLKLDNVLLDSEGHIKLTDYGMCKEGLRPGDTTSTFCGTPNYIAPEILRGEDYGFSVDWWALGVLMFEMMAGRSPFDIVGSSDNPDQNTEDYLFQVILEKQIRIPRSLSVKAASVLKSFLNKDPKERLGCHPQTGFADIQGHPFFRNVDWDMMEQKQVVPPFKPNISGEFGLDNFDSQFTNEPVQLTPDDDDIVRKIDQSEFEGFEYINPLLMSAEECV
UniProt P49137, whole entry, looked up: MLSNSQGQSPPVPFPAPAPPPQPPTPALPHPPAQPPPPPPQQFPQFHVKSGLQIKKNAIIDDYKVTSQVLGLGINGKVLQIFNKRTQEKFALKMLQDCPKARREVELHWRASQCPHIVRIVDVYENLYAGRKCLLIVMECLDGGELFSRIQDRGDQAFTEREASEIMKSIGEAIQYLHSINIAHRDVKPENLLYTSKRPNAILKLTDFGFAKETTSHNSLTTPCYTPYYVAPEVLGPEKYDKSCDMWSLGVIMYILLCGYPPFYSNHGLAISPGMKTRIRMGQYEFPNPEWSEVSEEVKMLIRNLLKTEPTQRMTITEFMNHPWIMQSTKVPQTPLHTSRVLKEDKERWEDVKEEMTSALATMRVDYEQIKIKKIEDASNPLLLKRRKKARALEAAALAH
UniProt P52655, whole entry: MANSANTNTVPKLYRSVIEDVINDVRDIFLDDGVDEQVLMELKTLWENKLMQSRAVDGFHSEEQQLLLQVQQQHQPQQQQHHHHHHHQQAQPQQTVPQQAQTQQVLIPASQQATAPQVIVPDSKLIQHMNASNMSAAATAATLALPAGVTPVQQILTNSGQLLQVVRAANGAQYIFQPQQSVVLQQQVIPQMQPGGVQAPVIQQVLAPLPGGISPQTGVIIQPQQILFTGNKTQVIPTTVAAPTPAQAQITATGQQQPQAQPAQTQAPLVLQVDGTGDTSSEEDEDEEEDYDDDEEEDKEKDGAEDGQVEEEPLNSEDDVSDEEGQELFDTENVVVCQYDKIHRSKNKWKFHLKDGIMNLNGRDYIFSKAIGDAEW
UniProt P49959: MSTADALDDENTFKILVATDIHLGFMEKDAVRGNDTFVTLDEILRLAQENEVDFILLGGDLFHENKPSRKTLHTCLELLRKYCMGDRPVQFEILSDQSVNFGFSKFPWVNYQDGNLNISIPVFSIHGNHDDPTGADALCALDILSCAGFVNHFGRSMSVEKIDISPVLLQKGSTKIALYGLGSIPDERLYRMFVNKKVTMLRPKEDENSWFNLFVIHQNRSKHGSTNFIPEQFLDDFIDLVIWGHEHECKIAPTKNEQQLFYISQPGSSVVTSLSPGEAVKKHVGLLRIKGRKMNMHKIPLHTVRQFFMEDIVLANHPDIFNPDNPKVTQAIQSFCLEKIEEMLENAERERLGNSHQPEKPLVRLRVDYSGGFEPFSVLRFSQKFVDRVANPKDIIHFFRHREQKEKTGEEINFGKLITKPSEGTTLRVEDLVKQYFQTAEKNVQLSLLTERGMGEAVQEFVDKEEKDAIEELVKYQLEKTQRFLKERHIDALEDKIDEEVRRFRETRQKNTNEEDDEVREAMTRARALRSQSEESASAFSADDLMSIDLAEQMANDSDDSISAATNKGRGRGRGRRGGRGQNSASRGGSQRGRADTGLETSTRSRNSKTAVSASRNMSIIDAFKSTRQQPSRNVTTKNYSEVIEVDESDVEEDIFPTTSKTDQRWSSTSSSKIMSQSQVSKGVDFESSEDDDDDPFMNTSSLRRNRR
UniProt P49589: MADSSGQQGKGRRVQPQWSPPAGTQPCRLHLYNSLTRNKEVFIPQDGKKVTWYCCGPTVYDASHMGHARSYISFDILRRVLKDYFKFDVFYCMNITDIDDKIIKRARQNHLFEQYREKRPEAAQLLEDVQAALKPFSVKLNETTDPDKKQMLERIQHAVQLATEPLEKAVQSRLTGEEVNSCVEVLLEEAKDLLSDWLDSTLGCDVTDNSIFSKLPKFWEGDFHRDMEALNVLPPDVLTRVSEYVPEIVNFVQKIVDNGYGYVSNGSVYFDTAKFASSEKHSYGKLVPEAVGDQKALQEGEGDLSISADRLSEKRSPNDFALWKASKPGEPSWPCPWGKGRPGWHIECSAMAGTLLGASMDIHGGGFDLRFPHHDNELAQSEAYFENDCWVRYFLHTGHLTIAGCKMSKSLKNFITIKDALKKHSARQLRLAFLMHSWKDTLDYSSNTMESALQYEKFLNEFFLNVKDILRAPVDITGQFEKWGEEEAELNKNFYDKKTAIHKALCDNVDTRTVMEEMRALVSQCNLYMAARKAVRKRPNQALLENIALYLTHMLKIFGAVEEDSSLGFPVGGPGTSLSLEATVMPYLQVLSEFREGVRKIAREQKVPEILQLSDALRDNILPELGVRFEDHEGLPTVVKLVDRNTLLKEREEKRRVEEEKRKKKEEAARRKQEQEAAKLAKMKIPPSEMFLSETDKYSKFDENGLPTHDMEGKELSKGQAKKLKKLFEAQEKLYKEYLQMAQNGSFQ
UniProt P51790: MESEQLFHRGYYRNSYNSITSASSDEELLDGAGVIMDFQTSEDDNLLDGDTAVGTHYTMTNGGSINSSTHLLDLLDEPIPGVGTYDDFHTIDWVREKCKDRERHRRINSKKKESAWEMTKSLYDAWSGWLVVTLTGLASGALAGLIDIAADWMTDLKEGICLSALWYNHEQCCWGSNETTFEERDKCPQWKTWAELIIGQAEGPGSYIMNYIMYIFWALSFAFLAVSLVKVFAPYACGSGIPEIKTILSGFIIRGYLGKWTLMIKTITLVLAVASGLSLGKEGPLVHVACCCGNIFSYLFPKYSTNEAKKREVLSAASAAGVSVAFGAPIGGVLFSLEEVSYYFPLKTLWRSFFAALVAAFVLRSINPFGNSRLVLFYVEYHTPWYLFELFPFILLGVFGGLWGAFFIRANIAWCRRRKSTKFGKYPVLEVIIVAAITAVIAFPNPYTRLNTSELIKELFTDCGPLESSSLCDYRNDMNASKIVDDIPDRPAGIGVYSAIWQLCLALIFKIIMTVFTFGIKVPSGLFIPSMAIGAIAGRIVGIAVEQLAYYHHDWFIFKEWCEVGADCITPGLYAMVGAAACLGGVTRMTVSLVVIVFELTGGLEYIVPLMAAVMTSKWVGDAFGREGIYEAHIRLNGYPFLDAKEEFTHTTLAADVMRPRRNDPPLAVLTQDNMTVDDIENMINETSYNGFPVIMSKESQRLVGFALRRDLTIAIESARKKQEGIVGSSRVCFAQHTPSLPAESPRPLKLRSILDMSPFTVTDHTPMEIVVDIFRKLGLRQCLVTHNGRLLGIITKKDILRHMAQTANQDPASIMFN

Compound in this experiment: Nc1ncnc2c1ncn2[C@@H]1O[C@H](COP(=O)(O)OP(=O)(O)NP(=O)(O)O)[C@@H](O)[C@H]1O [adenylyl imidodiphosphate]
Put plainly: NP40-soluble protein abundance relative to vehicle (solubility fold change) (ratio); higher = more soluble protein in presence of AMP-PNP. Summed up:
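In three independent experiments, Jurkat crude lysate made by Dounce homogenisation was treated for 10 min at room temperature and then 3 min at 37 °C with eight concentrations ranging from 0.1 to 10 mM. It was then solubilised with 0.8% NP40 plus benzonase for 60 min at 4 °C and ultracentrifuged. The supernatant was TMT-labelled for LC-MS/MS, and each value is the fold change against the detergent-processed vehicle for the same replicate, using vsn-normalised intensities.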

± gives the standard deviation of the averaged measurements. The entries are a selection whose mix differs from that of the whole data set. Most entries show no effect beyond the scatter of the controls.

USP8 (UniProt P40818): the NP40-soluble protein abundance (concentration: 0.1mM) amounted to 0.998 ± 0.019 and the NP40-soluble protein abundance (concentration: 0.5mM) is 0.996 ± 0.043.
Taken in the same sequence, the figures for UniProt P45985 were 0.976 ± 0.048 and 1 ± 0.028.
SLC25A1 (UniProt P53007): the NP40-soluble protein abundance runs as follows: (concentration: 0.1mM) 0.989 ± 0.02; (concentration: 0.5mM) 0.957 ± 0.084.
For the target UniProt P51812, the NP40-soluble protein abundance came out at 1.07 ± 0.038 (concentration: 0.1mM) and 0.996 ± 0.092 (concentration: 0.5mM).
For THOP1 (UniProt P52888), in that order: 0.966 ± 0.033 and 0.979 ± 0.076.
For “UniProt P46020-2|A6NMN0 and related entries”, in that order: 0.99 ± 0.038 and 0.97 ± 0.032.
On to UniProt P54725 and related entries, for which the NP40-soluble protein abundance (concentration: 0.1mM) amounted to 1.01 ± 0.011 and the NP40-soluble protein abundance (concentration: 0.5mM) was found to be 1.04 ± 0.046.
Taken in the same sequence, the figures for UniProt P42285 were 1.03 ± 0.019 and 1.02 ± 0.052.
For NEK4 (UniProt P51957), in that order: 1.04 ± 0.064 and 0.975 ± 0.082.
Taken in the same sequence, the figures for UniProt P46100 and related entries were 0.963 ± 0.033 and 0.984 ± 0.044.
UniProt P53609 and related entries: the NP40-soluble protein abundance by setting is: (concentration: 0.1mM) 1.034 ± 0.0098; (concentration: 0.5mM) 1.01 ± 0.019.
UniProt P52948 and related entries: the NP40-soluble protein abundance (concentration: 0.1mM) is 1.01 ± 0.048 and the NP40-soluble protein abundance (concentration: 0.5mM) is 1.02 ± 0.033.
For METAP1 (UniProt P53582), the NP40-soluble protein abundance by setting is: (concentration: 0.1mM) 1.01 ± 0.029; (concentration: 0.5mM) 1.03 ± 0.025.
For CBX5 (UniProt P45973), in that order: 0.966 ± 0.031 and 1.03 ± 0.076.
Take UniProt P49840: the NP40-soluble protein abundance is 1.04 ± 0.046 (concentration: 0.1mM) and 1.05 ± 0.045 (concentration: 0.5mM).
Taken in the same sequence, the figures for UniProt P55265 and related entries were 1.04 ± 0.024 and 1.05 ± 0.028.
For UniProt P54619 and related entries, in that order: 1.06 ± 0.046 and 0.982 ± 0.13.
For the target CRIP1 (UniProt P50238), the NP40-soluble protein abundance runs as follows: (concentration: 0.1mM) 0.984 ± 0.03; (concentration: 0.5mM) 1.03 ± 0.061.
For RABGGTB (UniProt P53611), in that order: 1.03 ± 0.024 and 1.04 ± 0.075.
Taken in the same sequence, the figures for UniProt P41743 were 1.01 ± 0.011 and 0.961 ± 0.025.
With EIF5 (UniProt P55010), the NP40-soluble protein abundance worked out at 0.965 ± 0.018 (concentration: 0.1mM) and 1.03 ± 0.039 (concentration: 0.5mM).
For MAPKAPK2 (UniProt P49137), in that order: 1 ± 0.0093 and 0.9878 ± 0.0095.
Taken in the same sequence, the figures for UniProt P49674 were 0.989 ± 0.017 and 0.98 ± 0.031.
For ARHGDIA (UniProt P52565), in that order: 0.96 ± 0.016 and 0.9502 ± 0.004.
As for EIF2S3 (UniProt P41091), the NP40-soluble protein abundance (concentration: 0.1mM) was determined as 1.01 ± 0.022 and the NP40-soluble protein abundance (concentration: 0.5mM) was 1.06 ± 0.035.
For UniProt P55210 and related entries, in that order: 0.981 ± 0.043 and 0.971 ± 0.04.
Taken in the same sequence, the figures for RASSF2 (UniProt P50749) were 0.991 ± 0.033 and 1.04 ± 0.037.
Taken in the same sequence, the figures for UniProt P48449 and related entries were 1.03 ± 0.036 and 0.976 ± 0.084.
In the case of ACTR1B (UniProt P42025), the NP40-soluble protein abundance reads like this: (concentration: 0.1mM) 0.989 ± 0.017; (concentration: 0.5mM) 1.01 ± 0.029.
For UniProt P55060 and related entries, in that order: 1.02 ± 0.051 and 1.01 ± 0.02.
Take CDKN2D (UniProt P55273): the NP40-soluble protein abundance (concentration: 0.1mM) stood at 1.01 ± 0.0093 and the NP40-soluble protein abundance (concentration: 0.5mM) came out at 1.01 ± 0.013.
As for SEC24C (UniProt P53992), the NP40-soluble protein abundance (concentration: 0.1mM) was 0.9933 ± 0.0099 and the NP40-soluble protein abundance (concentration: 0.5mM) amounted to 0.99 ± 0.035.
Regarding GTF2A1 (UniProt P52655), the NP40-soluble protein abundance was 0.988 ± 0.018 (concentration: 0.1mM) and 1.01 ± 0.043 (concentration: 0.5mM).
Taken in the same sequence, the figures for ADK (UniProt P55263) were 0.99 ± 0.032 and 0.986 ± 0.049.
For NDUFA8 (UniProt P51970), in that order: 0.984 ± 0.036 and 1.01 ± 0.037.
In the case of LRPPRC (UniProt P42704), the NP40-soluble protein abundance amounted to 0.961 ± 0.065 (concentration: 0.1mM) and 0.937 ± 0.052 (concentration: 0.5mM).
For UniProt P48634 and related entries, in that order: 0.989 ± 0.011 and 1 ± 0.031.
Taken in the same sequence, the figures for UniProt P49959 were 0.984 ± 0.031 and 0.976 ± 0.044.
For UniProt P49589 and related entries, in that order: 0.996 ± 0.024 and 1.003 ± 0.0025.
In the case of HLCS (UniProt P50747), the NP40-soluble protein abundance (concentration: 0.1mM) came out at 0.9936 ± 0.0096 and the NP40-soluble protein abundance (concentration: 0.5mM) turned out to be 0.972 ± 0.019.
For UniProt P49368 and related entries, in that order: 1.01 ± 0.024 and 0.985 ± 0.034.
Taken in the same sequence, the figures for UniProt P51790 and related entries were 1.01 ± 0.046 and 1.017 ± 0.0086.
Taken in the same sequence, the figures for UniProt P54819 and related entries were 0.959 ± 0.021 and 1 ± 0.043.
